Results published in US20120283421A1.
These are yes or no findings as the source states them, for the method shown. Some entries that bind do so weakly or less than the wild type.

Target: Ara h 1 (purified from peanut) (Arachis hypogaea) (UniProt P43238)
Test: fluorescence polarization; DSP cross-linking gives a complex of about 180 kd (trimer)

binding: binds
B1: Ara h 1 (purified from peanut) (protein)
chain: KSSPYQKKTENPCAQRCLQSCQQEPDDLKQKACESRCTKLEYDPRCVYDPRGHTGTTNQRSPPGERTRGRQPGDYDDDRRQPRREEGGRWGPAGPREREREEDWRQPREDWRRPSHQQPRKIRPEGREGEQEWGTPGSHVREETSRNNPFYFPSRRFSTRYGNQNGRIRVLQRFDQRSRQFQNLQNHRIVQIEAKPNTLVLPKHADADNILVIQQGQATVTVANGNNRKSFNLDEGHALRIPSGFISYILNRHDNQNLRVAKISMPVNTPGQFEDFFPASSRDQSSYLQGFSRNTLEAAFNAEFNEIRRVLLEENAGGEQEERGQRRWSTRSSENNEGVIVKVSKEHVEELTKHAKSVSKKGSEEEGDITNPINLREGEPDLSNNFGKLFEVKPDKKNPQLQDLDMMLTCVEIKEGALMLPHFNSKAMVIVVVNKGTGNLELVAVRKEQQQRGRREEEEDEDEEEEGSNREVRRYTARLKEGDVFIMPAAHPVAINASSELHLLGFGINAENNHRIFLAGDKDNVIDQIEKQAKDLAFPGSGEQVEKLIKNQKESHFVSARPQSQSQSPSSPEKESPEKEDQEEENQGGKGPLLSILKAFN
modifications: glycoprotein (PAS positive); fluorescein-labelled tracer in Example 6
